Test results from the supplement of paper PMC10011410.

Tests used:
U-2 OS [1] = assay: AUC of Cytotox red (membrane-compromised) object count (AUC (object count x time)); higher = more apoptotic or dead cells
Protocol: (§1)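 Live-cell Incucyte imaging of U-2 OS cells with Caspase-3/7 Green and Cytotox Red reagents. Compounds were tested mostly at 5, 10 and 20 uM, and cells were imaged every 4 h for up to 60 h. Value is the area under the curve of positive object counts over time, per channel: green = caspase 3/7, red = membrane-compromised, overlap = both.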

U-2 OS [2] = assay: AUC of caspase 3/7-positive object count (AUC (object count x time)); higher = more apoptotic or dead cells
Protocol: as §1

Structure (SMILES)	AUC of Cytotox red (U-2 OS [1]; 5 µM)	AUC of Cytotox red (U-2 OS [1]; 10 µM)	AUC of Cytotox red (U-2 OS [1]; 20 µM)	AUC of caspase 3/7-positive object count (U-2 OS [2]; 5 µM)	AUC of caspase 3/7-positive object count (U-2 OS [2]; 10 µM)	AUC of caspase 3/7-positive object count (U-2 OS [2]; 20 µM)	AUC of Cytotox red (U-2 OS [1]; 40 µM)	AUC of Cytotox red (U-2 OS [1]; 80 µM)	AUC of caspase 3/7-positive object count (U-2 OS [2]; 40 µM)	AUC of caspase 3/7-positive object count (U-2 OS [2]; 80 µM)	AUC of Cytotox red (U-2 OS [1]; 0.625 µM)	AUC of Cytotox red (U-2 OS [1]; 1.25 µM)	AUC of Cytotox red (U-2 OS [1]; 2.5 µM)	AUC of caspase 3/7-positive object count (U-2 OS [2]; 0.625 µM)	AUC of caspase 3/7-positive object count (U-2 OS [2]; 1.25 µM)	AUC of caspase 3/7-positive object count (U-2 OS [2]; 2.5 µM)
C[n+]1ccc(-c2cc[n+](CCCCCCCCCC[P+](c3ccccc3)(c3ccccc3)c3ccccc3)cc2)cc1.[I-].[I-].[I-]	72.5	51.1	154	47.9	40.8	117										
O=S1(=O)CC(N2CCCC2)c2ccccc21 (stereo not given)	28.4			43.2												
C/C(=C\c1csc(C)n1)[C@@H]1C[C@@H]2O[C@]2(C)CCC[C@H](C)[C@H](O)[C@@H](C)C(=O)C(C)(C)[C@@H](O)CC(=O)O1	226	256	300	266	285	285										
Cc1ccc(C(=O)N(CCCN)[C@@H](c2nc3cc(Cl)ccc3c(=O)n2Cc2ccccc2)C(C)C)cc1	258	504	1240	296	534	167										
COc1cc(/C=C/c2cc(/C=C/c3ccc(O)c(OC)c3)n(-c3ccc(C(=O)[O-])cc3)n2)ccc1O.[Na+]	26.8	33.5	51.1	32.1	61.7	66.9	50.7	71.3	111	84.3						
O=C(O[C@@H]1Cc2c(O)cc(O)cc2O[C@@H]1c1cc(O)c(O)c(O)c1)c1cc(O)c(O)c(O)c1	-1.11	-0.0286	-1.11	33.2	42.7	58.7	-0.529	-0.779	65.7	414						
CC(C)C[C@H](NC(=O)[C@H](Cc1ccccc1)NC(=O)c1cnccn1)B(O)O	972	957	847	1290	1180	1070										
CCOc1ccccc1-n1c(C(C)N2CCN(C(=O)COc3ccc(Cl)cc3)CC2)nc2ccccc2c1=O (stereo not given)	112	282	120	113	223	127										
O=c1c(O)c(-c2ccc(O)c(O)c2)oc2cc(O)ccc12	19.7	9.63	-0.286	58.1	58.2	143										
COc1ccc2c(c[n+](C)c3c4cc5c(cc4ccc23)OCO5)c1OC	29.3	101	831	31.4	50.8	848										
COc1cc([C@@H]2c3cc4c(cc3[C@H](O)[C@H]3COC(=O)[C@H]23)OCO4)cc(OC)c1OC	489	509	613	439	477	586										
Cc1onc(C(=O)N2CCN(C(c3ccc(Cl)cc3)c3ccc(Cl)cc3)CC2)c1[N+](=O)[O-]	963	863	710	484	435	428										
O=C(OC[C@H]1O[C@@H](OC(=O)c2cc(O)c(O)c(OC(=O)c3cc(O)c(O)c(O)c3)c2)[C@H](OC(=O)c2cc(O)c(O)c(OC(=O)c3cc(O)c(O)c(O)c3)c2)[C@@H](OC(=O)c2cc(O)c(O)c(OC(=O)c3cc(O)c(O)c(O)c3)c2)[C@@H]1OC(=O)c1cc(O)c(O)c(OC(=O)c2cc(O)c(O)c(O)c2)c1)c1cc(O)c(O)c(OC(=O)c2cc(O)c(O)c(O)c2)c1	0.622	11.1	-0.336	38.6	36.8	238										
Cn1c(SC2=CS(=O)(=O)c3ccccc32)nnc1-c1ccc(O)cc1	245	328	213	383	490	206										
Cn1ncnc2c(=O)n(C)c(=O)nc1-2	1210	1100	753	746	687	556										
CC(=O)OC1C(c2ccc(=O)oc2)C2(C)CCC3C(CCC4CC(O)CCC43C)C23OC13 (stereo not given)	37.5	65.3	62.4	65.5	74.7	86.3										
COC(=O)Nc1nc2ccc(C(=O)c3cccs3)cc2[nH]1	523	523	721	488	528	834					422	440	596	404	406	540
C=C1[C@@H](C)[C@H]2[C@H](Cc3ccccc3)NC(=O)[C@]23OC(=O)/C=C/[C@H](O)CCC[C@@H](C)C/C=C/[C@H]3[C@@H]1O	128	166	280	107	149	245										
COc1cc2ncnc(Nc3ccc(F)c(Cl)c3)c2cc1NC(=O)/C=C/CN1CCCCC1	206	607	1150	253	593	751										
C[C@@H]1O[C@@H](O[C@H]2[C@H](O[C@H]3CC[C@@]4(C)[C@@H](CC[C@]5(C)[C@@H]4CC=C4[C@@H]6CC(C)(C)CC[C@]6(C(=O)O)CC[C@]45C)[C@]3(C)CO)OC[C@H](O[C@@H]3O[C@H](CO)[C@@H](O)[C@H](O)[C@H]3O)[C@@H]2O)[C@H](O)[C@H](O)[C@H]1O	2180	2090	1770	128	136	122										
Cn1nnnc1SC1=CS(=O)(=O)c2ccccc21	252	1180	1600	178	946	1140										
Oc1cc(O)cc(/C=C/c2ccc(O)c(O)c2)c1	25.3	17.6	9.05	48.6	49.8	37.2										
C=CC(=O)N1CCC[C@@H](n2nc(-c3ccc(Oc4ccccc4)cc3)c3c(N)ncnc32)C1	96.9	45.1	196	105	113	469										
CNc1nc(-c2ccccc2)[n+](-c2ccccc2)s1	40.4	46.2	50.8	25.9	22.8	31.5										
COC(=O)[C@]1(C)CC[C@]2(C)CC[C@]3(C)C4=CC=C5C(=CC(=O)C(O)=C5C)[C@]4(C)CC[C@@]3(C)[C@@H]2C1	885	941		678	650	663										
O=S1(=O)C=Cc2ccccc21	45.4	71	339	76.4	89.9	443										

Exported in CSV form: 2 of the compounds above
Structure (SMILES),AUC of Cytotox red (U-2 OS [1]; 5 µM),AUC of Cytotox red (U-2 OS [1]; 10 µM),AUC of Cytotox red (U-2 OS [1]; 20 µM),AUC of caspase 3/7-positive object count (U-2 OS [2]; 5 µM),AUC of caspase 3/7-positive object count (U-2 OS [2]; 10 µM),AUC of caspase 3/7-positive object count (U-2 OS [2]; 20 µM),AUC of Cytotox red (U-2 OS [1]; 40 µM),AUC of Cytotox red (U-2 OS [1]; 80 µM),AUC of caspase 3/7-positive object count (U-2 OS [2]; 40 µM),AUC of caspase 3/7-positive object count (U-2 OS [2]; 80 µM),AUC of Cytotox red (U-2 OS [1]; 0.625 µM),AUC of Cytotox red (U-2 OS [1]; 1.25 µM),AUC of Cytotox red (U-2 OS [1]; 2.5 µM),AUC of caspase 3/7-positive object count (U-2 OS [2]; 0.625 µM),AUC of caspase 3/7-positive object count (U-2 OS [2]; 1.25 µM),AUC of caspase 3/7-positive object count (U-2 OS [2]; 2.5 µM)
Cn1c(SC2=CS(=O)(=O)c3ccccc32)nnc1-c1ccc(O)cc1,245,328,213,383,490,206,,,,,,,,,,
Cn1ncnc2c(=O)n(C)c(=O)nc1-2,1210,1100,753,746,687,556,,,,,,,,,,

Values are raw readings; no control value is given beside them.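 Every value is the mean of three technical replicates on separate plates. Each plate had reagent-free control wells to correct for cellular autofluorescence, plus DMSO-treated vehicle control wells. These live-cell readings have no defined active or hit threshold.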
